Results as given in US20250297216A1, “METHOD FOR PRODUCING MILK LIKE PRODUCTS” (SOCIETE DES PRODUITS NESTLE S.A., priority 2021, published 2025).
At least one compound was matched to its structure with a doubt left.

Tested on: iPSCs derived mammary gland organoids
Test: Flow cytometry quantification of mammary gland progenitor markers in 3D iPSC differentiation (42-day and shortened 31-day protocols)
Format: cell-based, human
Settings: 20 ng/ml BMP4, 1 μM RA, single or combination, 42 days and 31 days protocols, compared to control condition
Description: Scheme summarizing different procedures for the generation of mammary gland progenitors in 42 days (a), using bone morphogenetic protein 4 (BMP4) (b), retinoic acid (RA) (c), combinations of BMP4 and RA (d) and their combination in shortened time-course (31 days) (e). The red boxes indicate the period of addition of BMP4 and/or RA.

## CC1=C(/C=C/C(C)=C/C=C/C(C)=C/C(=O)O)C(C)(C)CCC1 [RA, retinoic acid]
  expression of mammary gland progenitor markers (EpCAM, CD49f, MUC1, GATA3): can induce the expression of mammary gland progenitor markers
